For 60 molecules, cell number change and AC50 results are on record in PubChem BioAssay AID2685 (National Center for Advancing Translational Sciences (NCATS), 2010).

Some of the results follow. These are further read-outs of the screen, such as a control signal, another cell line or another target. No call is given for them. Compounds called inactive in the main read-out are mostly missing here. The note in brackets gives the kind of curve behind each potency; many fits are weak.

A short description of the test: qHTS Assay for Lipid Storage Modulators in Drosophila S3 Cells.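 On cell number change: cells counted by Cell Tracker Red CMTPX staining in the red channel.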 The settings on record: BODIPY lipid droplet fluorescence, 18-24 h; for cell number change: measured here: cell count max response, cells fed with added oleic acid. In a few lines:
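Laser-scanning cytometry quantifies lipid droplet accumulation (500–530 nm total intensity; droplet/cell object ratio) in oleic acid-fed (400 uM added) Drosophila S3 cells treated with a concentration series. 20 uM Triacsin C defined 100% inhibition.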
(Quantitative high-throughput screening tests each substance at several concentrations.)

The mark [1] stands for this setting: measured here: cell number channel AC50, cells fed with added oleic acid.
[2] abbreviates: measured here: lipid fluorescence (Fed channel) AC50, cells fed with added oleic acid.

As for `O=C(OCC#CCSc1nnc(-c2cccc3ccccc23)o1)c1ccc(Br)cc1`, the cell number change amounted to 23.5%. Further, the AC50 under setting [1] was 0.517 µM [rising, full curve, poor fit]. Turning to `CN1C(=O)C(C(=O)NC(C)(C)C)C2c3ccccc3OC13CCCCC23` (stereo not drawn), the cell number change is -20.9%. In addition, the AC50 under setting [2] is 32.6 µM [falling, single point]. Take `CSc1sc(C(=O)NNC(C)=O)c2c1C1(CCC2)SCCS1`: the cell number change was -33.9%. For the same molecule, the AC50 under setting [1] was 10.3 µM [falling, partial curve]. Moreover, the half-maximal activity concentration (AC50) under setting [2] is 23.1 µM [falling, partial curve, poor fit]. Consider `O=S(=O)(NCCc1ccncc1)c1ccc(Br)cc1`, for which, under setting [2], the AC50 was 4.11 µM [rising, single point]. In the case of `CC(=O)Cc1nsc(Nc2ccc(Cl)cc2)n1`, the cell number change is -15%. The AC50 under setting [2] is 0.461 µM [falling, full curve, poor fit]. As for `CC(C)c1nccn1CCC(=O)O`, the cell number change is -16.1%. Further, the AC50 under setting [1] is 0.58 µM [falling, full curve, poor fit]. Also, under setting [2], the half-maximal activity concentration (AC50) was 1.3 µM [falling, partial curve]. As for `CCOC(=O)C(Cc1ccccc1)c1ccnc2ncnn12` (stereo not drawn), the cell number change was 9.59%.

Consider `COc1ccc(C(=O)c2ccc(OC)c3cccc(O)c23)cc1OC`, for which the cell number change was 14.8%. As for `CCn1c(SCC(=O)Nc2ccc(C(C)=O)cc2)nc2c([nH]c3ccccc32)c1=O`, the cell number change was -26.8%. For the molecule `Nc1nc(CSCCO)nc(Nc2ccc(F)cc2)n1`, the cell number change is -47.8%. For the same molecule, the AC50 under setting [1] was 7.31 µM [falling, partial curve]. Also, the AC50 under setting [2] is 14.6 µM [falling, partial curve]. In the case of `CC(C)=CC(=O)OCc1cc([N+](=O)[O-])cc2c1OCOC2`, the cell number change is 20.4%. As to `O=C(NCc1ccccc1)C(c1cccnc1)N(Cc1ccco1)C(=O)c1ccccn1` (stereo not drawn), the cell number change was 19.5%. For the same molecule, the concentration at half-maximal activity (AC50) under setting [2] was 0.58 µM [rising, full curve, poor fit]. As for `Nc1nnc(CC(=O)N/N=C/c2ccccc2OCc2ccccc2F)s1`, the cell number change is 3.3%. The half-maximal activity concentration (AC50) under setting [2] was 0.411 µM [rising, full curve]. On to `CC1CCCCN1C(=O)CSc1nc(-c2ccccc2)cc(=O)[nH]1` (stereo not drawn), for which the cell number change was found to be 6.56%. Besides, the AC50 under setting [2] was 18.4 µM [rising, single point]. In the case of `Cc1cc2nc(-c3cccnc3SCC(=O)NC3CC3)[nH]c2cc1C`, the cell number change was found to be 81.9%. The half-maximal activity concentration (AC50) under setting [1] was 5.17 µM [rising, full curve]. Moreover, the AC50 under setting [2] was 20.6 µM [rising, single point]. With `CCN(CC(=O)Nc1cc(Cl)ccc1C)C(=O)c1cc([N+](=O)[O-])ccc1N1CCOCC1`, the AC50 under setting [2] was 29.1 µM [rising, single point]. With `O=C(CNC(=O)c1ccc2c(c1)OCCO2)N=Nc1c(O)[nH]c2ccccc12`, the cell number change is 13.4%. Moreover, the AC50 under setting [2] is 29.1 µM [rising, single point]. In the case of `Cc1ccc(NC(=O)CCC(=O)OCC(F)(F)C(F)F)cc1`, the cell number change was -0.156%. The half-maximal activity concentration (AC50) under setting [2] is 0.651 µM [falling, single point]. Turning to `O=C(COC(=O)c1cc[n+]([O-])cc1)Nc1ccc(Br)cc1`, the cell number change was determined as 36.3%. Further, the AC50 under setting [1] was 1.03 µM [rising, full curve, poor fit]. The half-maximal activity concentration (AC50) under setting [2] is 18.4 µM [rising, single point]. On to `CCCCOc1ccc(/C=C/C(=O)Nc2ccc([N+](=O)[O-])cc2C)cc1`, for which the cell number change was -18.5%. Moreover, under setting [2], the AC50 was 0.116 µM [falling, full curve, poor fit]. As for `COc1cc(NC(=S)NCCCN2CCOCC2)c(OC)cc1Cl`, the cell number change is -5.08%.

For `CCN(CC)C(=O)N1CCC(NC(=O)c2ccc(C(C)(C)C)cc2)CC1`, the cell number change is -55.9%. Besides, the AC50 under setting [1] is 4.61 µM [falling, partial curve, poor fit]. The AC50 under setting [2] is 16.4 µM [falling, partial curve, poor fit].

Turning to `C#CCSc1nnc(CNS(=O)(=O)c2ccc(Br)cc2)n1C`, the cell number change was -9.84%. Besides, the AC50 under setting [2] is 6.51 µM [rising, single point]. As to `CC(Oc1ccc(Cl)cc1Cl)C(=O)NCCCn1ccnc1` (stereo not drawn), the cell number change came out at 78.9%. Besides, the half-maximal activity concentration (AC50) under setting [1] is 29.1 µM [rising, single point]. The AC50 under setting [2] was 16.4 µM [rising, partial curve].

As for `Cc1ccc(NC(=O)CSCC(=O)OCc2cc(=O)oc3cc(O)ccc23)c(C)c1`, the cell number change was -5.02%. The AC50 under setting [2] was 0.116 µM [rising, full curve, poor fit]. In the case of `C[C@@H](C(=O)Nc1ccc2ccccc2c1)[C@@H]1C[C@@]1(C)[C@@H](NC(=O)c1cccnc1)c1ccccc1`, the cell number change amounted to 9.24%. The concentration at half-maximal activity (AC50) under setting [2] was 0.461 µM [rising, single point]. For the molecule `O=C(O)CC1C(=O)NCCN1Cc1cccs1` (stereo not drawn), the cell number change came out at 18%. For the same molecule, the AC50 under setting [1] was 0.116 µM [falling, full curve, poor fit]. The AC50 under setting [2] is 6.51 µM [falling, single point]. For the molecule `CCC(=O)c1ccc(OCc2ccc(C(=O)OC)o2)c(OC)c1`, the cell number change is -30.2%. In addition, under setting [1], the concentration at half-maximal activity (AC50) was 0.00461 µM [falling, full curve, poor fit]. The concentration at half-maximal activity (AC50) under setting [2] was 29.1 µM [falling, partial curve, poor fit]. `CC12CCC(c3c(C(=O)O)nn(-c4ccc(F)cc4)c31)C2(C)C` (stereo not drawn): the half-maximal activity concentration (AC50) under setting [2] was 23.1 µM [falling, single point].

Regarding `COc1ccc(C(=O)N2CCCC(N3CCN(c4ccccc4F)CC3)C2)c(OC)n1` (stereo not drawn), the cell number change stood at 11.3%. For the molecule `Cc1ccc(-c2nnc(SCC(=O)NNC(=O)COc3cccc4ccccc34)n2C)cc1`, the cell number change was -30.8%. In addition, the AC50 under setting [2] is 5.17 µM [rising, full curve]. Take `COc1c(Cl)cc(Cl)cc1/C=N/NC(=O)c1nnn(-c2nonc2N)c1CN1CCC(C)CC1`: the cell number change stood at 12.2%. Further, under setting [2], the AC50 was 0.58 µM [rising, single point]. For `CCOC(=S)SCC(=O)Nc1nc(-c2ccccc2)cs1`, under setting [2], the half-maximal activity concentration (AC50) was 16.4 µM [falling, partial curve]. Regarding `CCOc1ccc(-c2cc3nc(C4CCN(C(=O)OC(C)(C)C)CC4)c(C(=O)O)cn3n2)cc1`, the cell number change was -35.6%. Under setting [1], the concentration at half-maximal activity (AC50) is 20.6 µM [falling, single point]. For `COc1ccccc1N(C)S(=O)(=O)c1ccc(C)c(C(=O)Nc2nccs2)c1`, the cell number change is -1.47%. Consider `COc1cccc(-c2c(C#N)c(N)nc3c2c(=O)nc2sccn23)c1`, for which the cell number change was -22%. Besides, the half-maximal activity concentration (AC50) under setting [2] was 0.0326 µM [falling, full curve, poor fit]. For `COc1ccc(-c2nc(C#N)c(NCc3ccc(F)cc3)o2)cc1OC`, the cell number change is -12%. In addition, the AC50 under setting [2] is 0.0651 µM [rising, full curve, poor fit]. `CC1(C)CC(=O)C(C(=O)C2CCN(S(=O)(=O)c3ccccc3)CC2)C(=O)C1`: the cell number change stood at 1.81%. For `O=C1NN=C(c2ccc(Cl)cc2)CC1c1cccc(Br)c1` (stereo not drawn), the AC50 under setting [1] was 6.51 µM [rising, single point] and the AC50 under setting [2] is 0.517 µM [rising, full curve]. Turning to `Cc1cc(C(=O)NNC(=S)NCC2CCCO2)cs1` (stereo not drawn), the cell number change was -18.6%. The AC50 under setting [2] was 0.731 µM [falling, full curve, poor fit].

As for `O=C(CCC(=O)N1CCSc2ccccc21)NC1CCCCC1`, the cell number change turned out to be 5.19%. Further, the concentration at half-maximal activity (AC50) under setting [2] is 6.51 µM [rising, single point].

Take `Brc1cccc(CN2CCCCCCC2)c1`: the cell number change was -9.72%. The AC50 under setting [1] is 0.146 µM [falling, full curve, poor fit]. As to `CCOc1ccc(NC(=O)c2nsc(Cl)c2Cl)cc1`, the cell number change is -8.83%. The half-maximal activity concentration (AC50) under setting [1] was 1.3 µM [falling, full curve]. `CCC(CC)C(=O)c1c[nH]c(C(=O)NCc2ccncc2)c1`: the cell number change turned out to be 6.39%. In addition, the AC50 under setting [1] is 6.51 µM [rising, partial curve]. On to `COc1ccc(N(CC(=O)NCc2ccccc2)S(=O)(=O)c2c(C)noc2C)cc1`, for which the cell number change was determined as 36.6%. Moreover, the AC50 under setting [1] is 14.6 µM [rising, partial curve, poor fit]. In the case of `CCN(CC)S(=O)(=O)c1ccc(OC)c(NC(=O)CSc2cc(Cl)ccc2Cl)c1`, the cell number change was 16.5%. In addition, the AC50 under setting [2] is 1.64 µM [rising, full curve]. `COc1ccccc1NC(=O)c1c(NC(=O)c2ccco2)sc2c1CCC2`: the cell number change was -17.5%. Consider `O=C(CNC1CCCCC1)Nc1cc(S(=O)(=O)N2CCOCC2)ccc1Cl`, for which the cell number change was found to be 14.1%. As to `COC(=O)CNC(=O)c1c(-c2ccccc2Cl)noc1C`, the cell number change is 4.89%. For the same molecule, the half-maximal activity concentration (AC50) under setting [2] was 5.8 µM [falling, single point].

Regarding `O=C(CC(C(=O)O)C1CCCO1)NCCc1ccc2c(c1)OCO2` (stereo not drawn), the cell number change was -10.8%. For the same molecule, the AC50 under setting [2] is 2.31 µM [falling, partial curve, poor fit].

For the molecule `COC(=O)c1ccc(-c2nc3ccc(C)cc3o2)cc1`, the cell number change is -0.2%. For `CC(C)CN(C(=O)c1cccc(Cl)c1)c1c(N)n(Cc2ccccc2)c(=O)[nH]c1=O`, the cell number change was -22.7%. In addition, the AC50 under setting [2] was 29.1 µM [falling, partial curve, poor fit]. As to `Cc1cccc(C)c1NC(=O)CCS(=O)(=O)c1cccc2nonc12`, the cell number change came out at 81%. Besides, the AC50 under setting [1] is 29.1 µM [rising, partial curve, poor fit]. For the molecule `COc1ccc(C2=NN(C(=O)CCC(=O)O)C(c3ccc(Br)cc3)C2)cc1` (stereo not drawn), the cell number change was 10.4%. In addition, the half-maximal activity concentration (AC50) under setting [2] was 0.517 µM [rising, full curve]. For `O=C(CCCN1C(=O)/C(=C/c2cccs2)SC1=S)NNC(=O)c1ccc(F)cc1`, the cell number change is -40.7%. Under setting [1], the concentration at half-maximal activity (AC50) was 1.64 µM [falling, single point]. Moreover, under setting [2], the AC50 is 2.31 µM [falling, full curve]. With `CCN(CC(=O)NC1CCS(=O)(=O)C1)C(=O)C(c1ccccc1)c1ccccc1` (stereo not drawn), the cell number change was -180%. The AC50 under setting [1] was 23.1 µM [falling, partial curve]. In addition, the concentration at half-maximal activity (AC50) under setting [2] is 6.51 µM [falling, single point]. For the molecule `C=CCN1CCc2cc(O)c(O)cc2C(c2ccccc2)C1` (stereo not drawn), the cell number change came to 31%. Moreover, under setting [1], the half-maximal activity concentration (AC50) was 8.2 µM [rising, partial curve, poor fit]. For the same molecule, the AC50 under setting [2] was 9.2 µM [rising, partial curve, poor fit].

Turning to `Cc1ccsc1C(=O)OCC(=O)N1CCc2ccccc2C1`, the cell number change was -134%. In addition, the concentration at half-maximal activity (AC50) under setting [2] is 29.1 µM [falling, single point]. Turning to `CCOC(=O)C1C2C=CC3(CN(C4CCCC4)C(=O)C13)O2` (stereo not drawn), the cell number change came to 2.57%. The AC50 under setting [2] was 5.17 µM [falling, partial curve]. As to `COc1ccc(C(CNC(=O)CNS(=O)(=O)c2ccc(NC(C)=O)cc2)N2CCOCC2)cc1` (stereo not drawn), the cell number change is -16.4%. Further, the AC50 under setting [1] was 0.291 µM [falling, full curve]. Further, the AC50 under setting [2] was 0.13 µM [falling, full curve].

Usually AC50 stands for the concentration giving half of the maximal activity seen.
